The supplement of paper PMC10849652
This is one part of the list.

The chains behind the UniProt entries cited, without tags or fusion partners. Where a name states a change or a piece, a line headed by the entry shows the natural chain unless it says otherwise.
UniProt Q9HAN9, whole entry, looked up: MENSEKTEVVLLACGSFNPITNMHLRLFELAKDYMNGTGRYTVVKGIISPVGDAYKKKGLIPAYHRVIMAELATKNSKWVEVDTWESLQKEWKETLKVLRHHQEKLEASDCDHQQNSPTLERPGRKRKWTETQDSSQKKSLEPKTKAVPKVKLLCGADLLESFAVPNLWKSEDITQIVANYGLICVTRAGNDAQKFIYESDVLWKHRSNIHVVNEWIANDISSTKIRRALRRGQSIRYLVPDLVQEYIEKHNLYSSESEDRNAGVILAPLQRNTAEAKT
UniProt O00567: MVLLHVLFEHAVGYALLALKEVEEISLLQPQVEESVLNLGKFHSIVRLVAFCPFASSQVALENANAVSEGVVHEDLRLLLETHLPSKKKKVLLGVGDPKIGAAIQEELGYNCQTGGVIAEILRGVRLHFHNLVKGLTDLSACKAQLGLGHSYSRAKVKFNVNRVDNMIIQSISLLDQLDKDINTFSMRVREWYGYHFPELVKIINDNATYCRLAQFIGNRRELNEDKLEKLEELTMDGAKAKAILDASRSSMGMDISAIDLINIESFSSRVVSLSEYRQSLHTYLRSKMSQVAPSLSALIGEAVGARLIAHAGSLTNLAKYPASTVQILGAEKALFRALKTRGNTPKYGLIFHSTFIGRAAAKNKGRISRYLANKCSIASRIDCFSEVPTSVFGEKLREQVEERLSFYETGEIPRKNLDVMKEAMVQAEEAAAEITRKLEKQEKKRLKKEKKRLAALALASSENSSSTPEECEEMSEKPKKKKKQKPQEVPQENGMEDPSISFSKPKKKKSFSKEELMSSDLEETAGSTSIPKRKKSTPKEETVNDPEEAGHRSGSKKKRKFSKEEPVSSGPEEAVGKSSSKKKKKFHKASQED
UniProt Q9Y2X3: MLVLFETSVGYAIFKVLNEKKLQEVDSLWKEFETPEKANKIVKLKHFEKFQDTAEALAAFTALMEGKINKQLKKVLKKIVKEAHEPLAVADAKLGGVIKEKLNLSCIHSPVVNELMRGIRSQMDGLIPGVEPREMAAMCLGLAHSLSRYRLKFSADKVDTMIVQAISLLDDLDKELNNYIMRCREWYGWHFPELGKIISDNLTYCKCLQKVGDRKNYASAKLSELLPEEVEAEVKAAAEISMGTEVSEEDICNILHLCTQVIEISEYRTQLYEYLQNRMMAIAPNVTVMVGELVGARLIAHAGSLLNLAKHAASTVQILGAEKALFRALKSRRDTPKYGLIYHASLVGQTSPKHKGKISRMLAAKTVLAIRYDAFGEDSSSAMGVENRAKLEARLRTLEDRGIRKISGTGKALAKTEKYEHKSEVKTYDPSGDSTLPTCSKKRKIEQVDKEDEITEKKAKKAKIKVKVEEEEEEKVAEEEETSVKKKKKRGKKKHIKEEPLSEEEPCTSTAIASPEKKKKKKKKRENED
UniProt Q9BXD5: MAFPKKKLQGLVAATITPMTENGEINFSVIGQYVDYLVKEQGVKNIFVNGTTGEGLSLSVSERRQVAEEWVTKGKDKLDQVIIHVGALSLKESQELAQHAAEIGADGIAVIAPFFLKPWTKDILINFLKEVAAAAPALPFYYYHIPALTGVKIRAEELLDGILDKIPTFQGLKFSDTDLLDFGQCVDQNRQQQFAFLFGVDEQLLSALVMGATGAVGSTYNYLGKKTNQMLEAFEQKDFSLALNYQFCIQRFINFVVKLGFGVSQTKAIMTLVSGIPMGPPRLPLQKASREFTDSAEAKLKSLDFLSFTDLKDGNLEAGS
UniProt P15531, whole entry, looked up: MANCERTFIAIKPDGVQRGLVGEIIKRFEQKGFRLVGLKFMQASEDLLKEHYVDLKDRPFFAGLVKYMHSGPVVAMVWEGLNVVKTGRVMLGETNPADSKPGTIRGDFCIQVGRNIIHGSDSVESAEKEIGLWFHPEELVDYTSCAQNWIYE
UniProt O75414: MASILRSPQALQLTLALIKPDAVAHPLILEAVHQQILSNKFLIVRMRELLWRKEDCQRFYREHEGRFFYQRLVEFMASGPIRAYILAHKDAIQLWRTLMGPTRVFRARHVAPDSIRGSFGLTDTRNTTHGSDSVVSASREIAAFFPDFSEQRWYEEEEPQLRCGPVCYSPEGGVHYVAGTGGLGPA
UniProt P55786: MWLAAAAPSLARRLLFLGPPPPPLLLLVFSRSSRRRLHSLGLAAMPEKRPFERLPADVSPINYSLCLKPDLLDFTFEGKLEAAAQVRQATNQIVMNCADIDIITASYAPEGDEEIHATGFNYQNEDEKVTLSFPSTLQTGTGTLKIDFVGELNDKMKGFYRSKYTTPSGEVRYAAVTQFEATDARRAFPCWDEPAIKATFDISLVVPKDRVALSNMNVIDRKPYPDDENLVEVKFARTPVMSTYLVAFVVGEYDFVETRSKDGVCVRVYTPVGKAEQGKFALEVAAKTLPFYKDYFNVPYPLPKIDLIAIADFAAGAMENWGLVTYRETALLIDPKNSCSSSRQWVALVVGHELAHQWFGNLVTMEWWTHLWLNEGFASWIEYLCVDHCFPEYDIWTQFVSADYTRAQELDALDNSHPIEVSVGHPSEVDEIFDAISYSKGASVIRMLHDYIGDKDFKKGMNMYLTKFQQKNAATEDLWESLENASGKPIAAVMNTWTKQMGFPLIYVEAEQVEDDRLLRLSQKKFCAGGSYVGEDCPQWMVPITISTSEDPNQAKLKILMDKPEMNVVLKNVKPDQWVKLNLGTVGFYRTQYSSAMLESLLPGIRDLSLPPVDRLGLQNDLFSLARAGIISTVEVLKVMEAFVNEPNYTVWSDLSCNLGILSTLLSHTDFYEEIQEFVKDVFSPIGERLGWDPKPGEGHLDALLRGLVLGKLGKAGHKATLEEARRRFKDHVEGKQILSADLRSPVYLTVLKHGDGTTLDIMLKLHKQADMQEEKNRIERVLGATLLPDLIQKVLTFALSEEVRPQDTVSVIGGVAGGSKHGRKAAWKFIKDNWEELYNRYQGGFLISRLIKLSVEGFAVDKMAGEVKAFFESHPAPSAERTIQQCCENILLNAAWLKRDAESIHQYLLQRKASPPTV
UniProt Q15653: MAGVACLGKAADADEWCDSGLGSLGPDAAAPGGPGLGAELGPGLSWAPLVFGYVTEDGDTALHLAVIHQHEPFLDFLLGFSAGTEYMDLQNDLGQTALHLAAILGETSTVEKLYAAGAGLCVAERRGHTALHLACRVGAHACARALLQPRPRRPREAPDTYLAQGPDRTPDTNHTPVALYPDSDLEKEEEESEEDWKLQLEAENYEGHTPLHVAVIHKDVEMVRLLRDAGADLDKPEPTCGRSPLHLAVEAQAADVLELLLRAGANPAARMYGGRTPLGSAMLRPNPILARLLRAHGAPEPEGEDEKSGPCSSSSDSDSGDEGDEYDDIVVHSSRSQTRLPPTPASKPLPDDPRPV
UniProt Q9NVX2: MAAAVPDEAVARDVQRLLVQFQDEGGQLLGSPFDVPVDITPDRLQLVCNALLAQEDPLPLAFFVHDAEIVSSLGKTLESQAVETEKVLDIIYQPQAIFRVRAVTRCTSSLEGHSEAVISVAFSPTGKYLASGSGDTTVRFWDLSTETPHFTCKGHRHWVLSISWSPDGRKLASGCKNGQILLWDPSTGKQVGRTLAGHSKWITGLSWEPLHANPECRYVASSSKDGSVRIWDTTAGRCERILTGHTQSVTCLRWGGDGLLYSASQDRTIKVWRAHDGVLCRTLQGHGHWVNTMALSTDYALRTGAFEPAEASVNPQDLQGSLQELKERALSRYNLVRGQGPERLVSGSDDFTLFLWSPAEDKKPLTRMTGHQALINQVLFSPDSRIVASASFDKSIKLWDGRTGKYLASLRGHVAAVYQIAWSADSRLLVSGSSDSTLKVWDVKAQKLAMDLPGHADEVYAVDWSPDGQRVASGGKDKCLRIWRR
UniProt Q9Y2I1: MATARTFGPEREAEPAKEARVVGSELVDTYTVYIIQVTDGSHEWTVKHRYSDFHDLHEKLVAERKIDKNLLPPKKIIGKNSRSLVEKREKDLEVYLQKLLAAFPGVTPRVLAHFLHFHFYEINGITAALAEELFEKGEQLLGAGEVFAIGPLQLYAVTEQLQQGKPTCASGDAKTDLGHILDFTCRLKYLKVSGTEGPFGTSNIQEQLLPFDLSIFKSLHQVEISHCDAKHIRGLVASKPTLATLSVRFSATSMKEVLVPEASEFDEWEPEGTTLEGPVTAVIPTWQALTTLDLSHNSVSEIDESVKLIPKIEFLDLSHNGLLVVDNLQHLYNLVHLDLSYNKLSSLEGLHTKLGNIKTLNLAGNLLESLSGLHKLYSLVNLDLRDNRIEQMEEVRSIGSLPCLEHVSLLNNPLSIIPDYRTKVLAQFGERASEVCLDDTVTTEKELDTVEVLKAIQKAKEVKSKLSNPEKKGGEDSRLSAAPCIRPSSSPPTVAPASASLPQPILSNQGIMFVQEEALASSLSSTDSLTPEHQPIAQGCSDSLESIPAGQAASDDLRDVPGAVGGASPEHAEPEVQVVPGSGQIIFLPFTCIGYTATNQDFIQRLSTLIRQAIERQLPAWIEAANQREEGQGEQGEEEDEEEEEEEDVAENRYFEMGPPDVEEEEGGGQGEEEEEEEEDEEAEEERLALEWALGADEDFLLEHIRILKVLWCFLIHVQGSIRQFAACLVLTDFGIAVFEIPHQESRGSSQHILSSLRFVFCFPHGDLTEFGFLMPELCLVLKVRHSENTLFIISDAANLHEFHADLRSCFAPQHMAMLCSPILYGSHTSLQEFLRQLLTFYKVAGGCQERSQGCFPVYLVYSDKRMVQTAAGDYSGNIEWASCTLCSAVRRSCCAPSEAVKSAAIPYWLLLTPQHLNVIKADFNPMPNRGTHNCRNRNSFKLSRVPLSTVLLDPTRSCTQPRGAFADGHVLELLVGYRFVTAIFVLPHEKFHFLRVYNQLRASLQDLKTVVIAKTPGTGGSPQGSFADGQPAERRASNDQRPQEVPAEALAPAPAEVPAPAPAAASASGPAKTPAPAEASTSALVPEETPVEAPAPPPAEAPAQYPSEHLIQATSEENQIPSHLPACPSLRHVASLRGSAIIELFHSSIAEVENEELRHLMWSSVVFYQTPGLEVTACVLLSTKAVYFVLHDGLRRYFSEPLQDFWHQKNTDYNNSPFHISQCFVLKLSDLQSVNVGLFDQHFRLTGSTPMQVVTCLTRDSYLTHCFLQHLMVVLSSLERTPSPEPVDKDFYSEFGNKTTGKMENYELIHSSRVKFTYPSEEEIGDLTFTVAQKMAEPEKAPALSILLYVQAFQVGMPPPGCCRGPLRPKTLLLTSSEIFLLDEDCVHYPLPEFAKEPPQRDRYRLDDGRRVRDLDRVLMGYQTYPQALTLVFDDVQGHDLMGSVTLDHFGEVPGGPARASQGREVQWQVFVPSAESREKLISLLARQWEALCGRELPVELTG
UniProt Q15233: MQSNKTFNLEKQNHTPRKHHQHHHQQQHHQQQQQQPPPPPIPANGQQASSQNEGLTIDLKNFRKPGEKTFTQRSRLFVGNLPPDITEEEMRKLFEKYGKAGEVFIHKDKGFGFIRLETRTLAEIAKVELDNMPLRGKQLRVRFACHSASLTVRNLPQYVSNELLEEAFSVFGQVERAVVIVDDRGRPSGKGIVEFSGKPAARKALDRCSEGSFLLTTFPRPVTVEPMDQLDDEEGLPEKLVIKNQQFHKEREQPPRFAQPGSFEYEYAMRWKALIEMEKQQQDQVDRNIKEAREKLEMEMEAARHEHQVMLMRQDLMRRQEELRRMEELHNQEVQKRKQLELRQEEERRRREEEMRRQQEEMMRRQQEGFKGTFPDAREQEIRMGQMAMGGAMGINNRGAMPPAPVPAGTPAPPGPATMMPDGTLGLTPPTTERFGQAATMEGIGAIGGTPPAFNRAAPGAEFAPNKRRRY
UniProt Q9Y3C1: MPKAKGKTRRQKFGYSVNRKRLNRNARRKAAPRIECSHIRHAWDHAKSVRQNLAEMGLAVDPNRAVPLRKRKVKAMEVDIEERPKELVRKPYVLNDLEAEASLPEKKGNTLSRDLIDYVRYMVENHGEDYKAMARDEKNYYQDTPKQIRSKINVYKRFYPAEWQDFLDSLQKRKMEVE
UniProt Q16621: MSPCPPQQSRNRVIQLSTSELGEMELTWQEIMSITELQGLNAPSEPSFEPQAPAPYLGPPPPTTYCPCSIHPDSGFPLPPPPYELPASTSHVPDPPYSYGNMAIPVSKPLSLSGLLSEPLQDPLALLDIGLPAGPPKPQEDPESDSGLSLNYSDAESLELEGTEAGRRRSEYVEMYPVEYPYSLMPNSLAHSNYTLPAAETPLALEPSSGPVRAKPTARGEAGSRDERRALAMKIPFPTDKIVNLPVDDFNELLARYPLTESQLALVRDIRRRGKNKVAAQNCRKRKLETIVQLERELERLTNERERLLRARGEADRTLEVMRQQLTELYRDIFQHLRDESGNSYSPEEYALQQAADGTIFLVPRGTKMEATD
UniProt Q9UFN0: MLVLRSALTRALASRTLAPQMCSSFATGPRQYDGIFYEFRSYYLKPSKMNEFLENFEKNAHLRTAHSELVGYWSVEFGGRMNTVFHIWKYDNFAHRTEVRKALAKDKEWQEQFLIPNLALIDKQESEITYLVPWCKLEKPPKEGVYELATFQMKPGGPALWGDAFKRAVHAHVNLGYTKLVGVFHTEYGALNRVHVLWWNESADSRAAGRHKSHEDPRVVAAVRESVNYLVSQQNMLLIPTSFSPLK

Assays:
Assay in all cases: log2 fold change, soluble protein after heating vs DMSO (PISA); higher = thermal stabilisation; K562 cells, 10 uM, 30 min; active = over 0.2 and 3.5 SD of the protein, either way, in both replicates (recomputed)
[1] = compound: NC(=O)Nc1cc(-c2cccc(F)c2)sc1C(=O)N[C@H]1CCCNC1
Procedure, shortened: (§1)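 Soluble protein was quantified by TMTpro 16plex LC-MS/MS after channel sums were equalised. It was obtained as the supernatant after 21,000xg for 90 min from pooled aliquots of K562 cells (2×10^6 cells/mL, 10 μM compound, 30 min) heated for 3 min across 48°C-58°C and extracted in PBS with 0.5% NP-40 at 4°C. Thermal stability values are relative to control samples and come from duplicates. They are given as log2 fold changes.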

[2] = compound: NC(=O)c1cnc(N[C@@H]2CCCC[C@@H]2N)nc1Nc1cccc(-n2nccn2)c1
Procedure, shortened: as §1

[3] = compound: NC1(c2ccc(-c3nc4ccn5c(=O)[nH]nc5c4cc3-c3ccccc3)cc2)CCC1
Procedure, shortened: as §1

[4] = compound: NCC(=O)Nc1ccc(-n2nc(C(F)(F)F)cc2-c2ccc3c(ccc4ccccc43)c2)cc1
Procedure, shortened: as §1

entinostat = compound: Nc1ccccc1NC(=O)c1ccc(CNC(=O)OCc2cccnc2)cc1 [entinostat]
Procedure, shortened: as §1

vorinostat = compound: O=C(CCCCCCC(=O)Nc1ccccc1)NO [vorinostat]
Procedure, shortened: as §1

citarinostat = compound: O=C(CCCCCCNC(=O)c1cnc(N(c2ccccc2)c2ccccc2Cl)nc1)NO [citarinostat]
Procedure, shortened: as §1

silmitasertib = compound: O=C(O)c1ccc2c(c1)nc(Nc1cccc(Cl)c1)c1ccncc12 [silmitasertib]
Procedure, shortened: as §1

[5] = compound: O=C1NC(=O)C(c2cnc3ccccn23)=C1c1cn2c3c(cc(F)cc13)CN(C(=O)N1CCCCC1)CC2
Procedure, shortened: as §1

[6] = compound: c1cc(OCCN2CCCCC2)cc(-c2n[nH]c3ccc(-c4nnc[nH]4)cc23)c1
Procedure, shortened: as §1

Measured: log2 fold change

NIBAN2 (UniProt Q96TA1)
inactive: [1] -0.038 | [2] 0.004 | [3] -0.047 | [4] -0.029 | entinostat 0 | vorinostat -0.002 | citarinostat 0.041 | silmitasertib -0.03 | [5] -0.049 | [6] -0.055

NMNAT1 (UniProt Q9HAN9)
inactive: [1] 0.171 | [2] 0.145 | [3] 0.197 | [4] 0.081 | entinostat 0.002 | vorinostat -0.077 | citarinostat -0.033 | silmitasertib 0.201 | [5] 0.259 | [6] -0.174

NGRN (UniProt Q9NPE2)
inactive: [1] -0.096 | [2] 0.025 | [3] 0.005 | [4] -0.001 | entinostat -0.027 | vorinostat -0.006 | citarinostat 0.009 | silmitasertib 0.14 | [5] 0.115 | [6] -0.032

NFXL1 (UniProt Q6ZNB6)
inactive: [1] -0.034 | [2] -0.038 | [3] 0.076 | [4] -0.087 | entinostat -0.005 | vorinostat -0.038 | citarinostat -0.005 | silmitasertib 0.046 | [5] -0.062 | [6] -0.001

NEU1 (UniProt Q99519)
inactive: [1] -0.081 | [2] -0.088 | [3] -0.114 | [4] -0.057 | entinostat 0.003 | vorinostat 0.159 | citarinostat 0.087 | silmitasertib 0.04 | [5] -0.066 | [6] -0.063

NENF (UniProt Q9UMX5)
inactive: [1] 0.036 | [2] 0.018 | [3] 0.058 | [4] 0.009 | entinostat 0.001 | vorinostat -0.048 | citarinostat 0.005 | silmitasertib -0.003 | [5] -0.042 | [6] -0.048

NLN (UniProt Q9BYT8)
inactive: [1] 0.012 | [2] -0.038 | [3] -0.034 | [4] -0.021 | entinostat -0.018 | vorinostat 0.023 | citarinostat 0.103 | silmitasertib -0.044 | [5] -0.043 | [6] 0.026

NME2P1 (UniProt O60361)
inactive: [1] 0.07 | [2] -0.146 | [3] -0.124 | [4] -0.306 | entinostat -0.01 | vorinostat 0.036 | citarinostat -0.114 | silmitasertib 0.048 | [5] -0.011 | [6] -0.161

NOP56 (UniProt O00567)
inactive: [1] 0.162 | [2] 0.14 | [3] 0.197 | [4] 0.103 | entinostat -0.084 | vorinostat 0.014 | citarinostat -0.058 | silmitasertib 0.096 | [5] 0.09 | [6] -0.156

NOP58 (UniProt Q9Y2X3)
inactive: [1] -0.012 | [2] 0.052 | [3] 0.316 | [4] 0.043 | entinostat -0.05 | vorinostat -0.087 | citarinostat -0.048 | silmitasertib 0.108 | [5] 0.082 | [6] -0.119

NFX1 (UniProt Q12986)
inactive: [1] 0.157 | [2] 0.008 | [4] 0.045 | entinostat 0.014 | vorinostat -0.016 | citarinostat -0.033 | silmitasertib -0.006 | [5] -0.018 | [6] -0.019
active: [3] 0.659

NPL (UniProt Q9BXD5)
inactive: [1] -0.111 | [2] 0.005 | [3] 0.001 | [4] -0.05 | entinostat -0.161 | vorinostat 0.018 | citarinostat -0.007 | silmitasertib 0.033 | [5] -0.071 | [6] -0.022

NME1 isoform 2 (UniProt P15531)
inactive: [1] 0.012 | [2] -0.017 | [3] -0.003 | [4] -0.003 | entinostat -0.064 | vorinostat 0.103 | citarinostat -0.089 | silmitasertib -0.138 | [5] -0.089 | [6] -0.253

NME6 (UniProt O75414)
inactive: [1] -0.039 | [2] -0.021 | [3] -0.033 | [4] -0.052 | entinostat 0.048 | vorinostat -0.141 | citarinostat -0.011 | silmitasertib -0.024 | [5] -0.149 | [6] -0.01

NPEPPS (UniProt P55786)
inactive: [1] -0.02 | [2] -0.035 | [3] -0.046 | [4] -0.041 | entinostat -0.007 | vorinostat 0.076 | citarinostat 0.048 | silmitasertib -0.038 | [5] -0.003 | [6] -0.03

NOL11 (UniProt Q9H8H0)
inactive: [1] 0.042 | [2] 0.055 | [3] 0.041 | [4] 0.038 | entinostat -0.019 | vorinostat -0.013 | citarinostat 0.035 | silmitasertib 0.068 | [5] 0.02 | [6] -0.041

NFKBIB (UniProt Q15653)
inactive: [1] -0.06 | [2] -0.087 | [3] -0.083 | [4] 0.017 | entinostat -0.002 | vorinostat 0.017 | citarinostat 0.061 | silmitasertib 0.054 | [5] -0.083 | [6] -0.038

NMI (UniProt Q13287)
inactive: [1] -0.004 | [2] -0.033 | [3] -0.022 | [4] -0.035 | entinostat 0.002 | vorinostat -0.003 | citarinostat 0.002 | silmitasertib 0.001 | [5] -0.038 | [6] -0.01

NLE1 (UniProt Q9NVX2)
inactive: [1] 0.046 | [2] -0.009 | [3] -0.004 | [4] -0.003 | entinostat 0.017 | vorinostat 0.019 | citarinostat 0.041 | silmitasertib 0.023 | [5] -0.031 | [6] -0.003

NFATC4 isoform 2 (UniProt Q14934)
inactive: [1] -0.149 | [2] -0.064 | [3] -0.379 | [4] -0.193 | entinostat 0.013 | vorinostat 0.025 | citarinostat -0.156 | silmitasertib 0.073 | [5] -0.073 | [6] -0.076

NMT2 (UniProt O60551)
active: [6] -0.491
inactive: [1] 0 | [2] -0.089 | [3] -0.168 | [4] -0.164 | entinostat -0.004 | vorinostat -0.049 | citarinostat 0.007 | silmitasertib -0.028 | [5] -0.017

Two consecutive entries already listed:
NMI (UniProt Q13287)
inactive: [1] -0.004 | [2] -0.033 | [3] -0.022 | [4] -0.035 | entinostat 0.002 | vorinostat -0.003 | citarinostat 0.002 | silmitasertib 0.001 | [5] -0.038 | [6] -0.01

NLE1 (UniProt Q9NVX2)
inactive: [1] 0.046 | [2] -0.009 | [3] -0.004 | [4] -0.003 | entinostat 0.017 | vorinostat 0.019 | citarinostat 0.041 | silmitasertib 0.023 | [5] -0.031 | [6] -0.003

Further records:

NOB1 (UniProt Q9ULX3)
inactive: [1] -0.032 | [2] 0.002 | [3] -0.041 | [4] -0.021 | entinostat 0.047 | vorinostat 0.093 | citarinostat -0.003 | silmitasertib -0.096 | [5] 0.062 | [6] 0.038

NIPA2 (UniProt Q8N8Q9)
inactive: [1] -0.08 | [2] 0.005 | [3] -0.051 | [4] -0.058 | entinostat -0.031 | vorinostat -0.046 | citarinostat -0.048 | silmitasertib 0.122 | [5] -0.083 | [6] -0.146

NISCH (UniProt Q9Y2I1)
inactive: [1] -0.052 | [2] -0.293 | [3] -0.354 | [4] -0.168 | entinostat 0.101 | vorinostat 0.09 | citarinostat 0.023 | silmitasertib 0.065 | [5] 0.081 | [6] -0.147

NFKB1 isoform 2 (UniProt P19838)
inactive: [1] -0.01 | [2] -0.117 | [3] -0.138 | [4] -0.033 | entinostat -0.014 | vorinostat 0.217 | citarinostat 0.055 | silmitasertib -0.015 | [5] 0.17 | [6] -0.104

NONO (UniProt Q15233)
inactive: [1] 0.047 | [2] -0.014 | [3] 0.155 | [4] 0.029 | entinostat 0.059 | vorinostat 0.088 | citarinostat 0.079 | silmitasertib 0.13 | [5] 0.065 | [6] -0.128

NOP16 (UniProt Q9Y3C1)
inactive: [1] -0.034 | [2] 0.115 | [3] 0.326 | [4] 0.186 | entinostat -0.144 | vorinostat -0.089 | citarinostat -0.102 | silmitasertib 0.214 | [5] 0.166 | [6] -0.292

NRDC isoform 2 (UniProt O43847)
inactive: [1] -0.01 | [2] -0.044 | [3] -0.057 | [4] -0.036 | entinostat 0.043 | vorinostat 0.04 | citarinostat 0.024 | silmitasertib 0.025 | [5] -0.05 | [6] -0.06

NFE2 (UniProt Q16621)
inactive: [1] 0.035 | [2] -0.049 | [3] -0.091 | [4] -0.062 | entinostat -0.024 | vorinostat 0.055 | citarinostat 0.04 | silmitasertib 0.145 | [5] -0.037 | [6] 0.006

NIPSNAP3A (UniProt Q9UFN0)
inactive: [1] 0.028 | [2] 0.049 | [3] -0.056 | [4] -0.016 | entinostat -0.01 | vorinostat -0.099 | citarinostat 0.051 | silmitasertib -0.006 | [5] -0.026 | [6] -0.045
